Results published in PubChem BioAssay AID504467 (National Center for Advancing Translational Sciences (NCATS), 2011).
In all, about 330,000 compounds went through this assay and about 7,700 (2.3%) were called active. Inconclusive means that the source gave no clear call. Such entries were picked first, then a sample of the others. Calls follow the shape of the dose curve; as a rule, active = well fitted inhibition curve with a large enough effect; inconclusive = small, poorly fitted or top-dose-only effect, or effect the other way; inactive = flat fitted curve, though single readings scatter. Potencies beside an inconclusive call are fits to weak or partial responses and may not hold up.

assay: qHTS screen for small molecules that inhibit ELG1-dependent DNA repair in human embryonic kidney (HEK293T) cells expressing luciferase-tagged ELG1; settings: HEK293T ELG1-luciferase reporter, luminescence, 16 h, DNA damage induced by 5-fluorouridine; series mostly up to 46.1 µM; also: nearly all actives have a fitted effect of over 55% in size
Procedure, shortened: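 Luminescence from the luciferase reporter, measured 30 min after ONE-Glo reagent at room temperature, was the read-out. Beforehand, 2,000 cells per well were exposed for 16 hr at 37 °C to 5-fluorouridine together with compound or vehicle.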
Potency is read from the fitted curve at half-maximal effect.

**Q.** For `COc1ccc(-n2nc(C(=O)NCC(=O)N3CCCCCC3)c3ccccc3c2=O)cc1`, which Potency is on record?
**A.** inactive

**Q.** For `O=C(NC1CCCCC1)c1cccc2c1C(=O)c1ccc(N3CCC(Cc4ccccc4)CC3)cc1S2(=O)=O`, which Potency is on record?
**A.** inactive

**Q.** Which Potency does the source give for `COc1ccc(/C=C/C(=O)N2CCN(c3ccccc3)CC2)cc1S(=O)(=O)N1CCOCC1` here?
**A.** inconclusive: 11.6 µM [inhibitor, partial curve]

**Q.** For `CC(C)C(=O)Nc1ccc(NC(=O)c2ccco2)cn1`, which Potency is on record?
**A.** inconclusive: 20.6 µM [activator, partial curve]

**Q.** For `CSc1ncccc1C(=O)N1CCCC(C(=O)c2ccc3ccccc3c2)C1` (configuration not stated), which Potency is on record?
**A.** inconclusive: 29.1 µM [inhibitor, single point]

**Q.** For `Cc1nc(Nc2ccc(C(=O)O)cc2)sc1-c1ccccc1`, which Potency is on record?
**A.** inconclusive: 0.116 µM [activator, full curve]

**Q.** For `CCN1C(=O)c2cccc3c(S(=O)(=O)Nc4ccncc4)ccc1c23`, which Potency is on record?
**A.** inconclusive: 20.6 µM [activator, single point]

**Q.** Which Potency does the source give for `O=C(Nc1cccc(S(=O)(=O)NC2=NCCCCC2)c1)c1cc(-c2ccncc2)nc2ccccc12` here?
**A.** inconclusive: 20.6 µM [inhibitor, single point]

**Q.** For `COc1ccc(NC(=O)c2ccc3ccccc3n2)cc1S(=O)(=O)N1CCCCC1`, which Potency is on record?
**A.** inconclusive: 32.6 µM [inhibitor, single point]

**Q.** For `COc1ccccc1NC(=O)COc1ccc(/C=N/n2cnnc2)cc1OC`, which Potency is on record?
**A.** inactive

**Q.** Which Potency does the source give for `O=C1CCCC/C=C\C[C@H](CC(=O)N(CCO)Cc2ccccc2)C(=O)N[C@@H](c2ccccc2)CO1` here?
**A.** inactive

**Q.** For `CCOc1ccc(-n2c(=O)c3sccc3n(CC(=O)NC3CCCCC3)c2=O)cc1`, which Potency is on record?
**A.** inconclusive: 25.9 µM [activator, single point]

**Q.** For `C=CCn1c(SCC(=O)OCc2ccccc2)nc2c1c(=O)n(C)c(=O)n2C`, which Potency is on record?
**A.** inconclusive: 29.1 µM [inhibitor, single point]

**Q.** With `CCCCN(CC)Cc1c(O)ccc2c3c(c(=O)oc12)CCC3` as the molecule, how does the Potency read?
**A.** inconclusive: 29.1 µM [inhibitor, single point]

**Q.** With `COc1ccc(Nc2nc(NCCN3CCOCC3)nc(Nc3ccc(OC)cc3)n2)cc1` as the molecule, how does the Potency read?
**A.** inconclusive: 20.6 µM [inhibitor, partial curve, poor fit]

**Q.** With `CC(C)(C)c1ccc(/C([O-])=C(/C(=S)NCc2ccco2)[n+]2ccccc2)cc1` as the molecule, how does the Potency read?
**A.** inconclusive: 25.9 µM [activator, partial curve]

**Q.** With `O=C(O)CSc1ncnc2scc(-c3ccccc3)c12` as the molecule, how does the Potency read?
**A.** inactive

**Q.** Which Potency does the source give for `Cc1ccc(OCCn2c(C3CC(=O)N(Cc4ccccc4)C3)nc3ccccc32)cc1` (configuration not stated) here?
**A.** active: 14.6 µM

**Q.** For `Cc1noc(C)c1C(=O)Nc1sc2c(c1C(N)=O)CCCCC2`, which Potency is on record?
**A.** inconclusive: 4.11 µM [inhibitor, single point]

**Q.** Which Potency does the source give for `C=CCNC(=O)/C=C/c1ccc(C(C)C)cc1` here?
**A.** inconclusive: 18.4 µM [activator, partial curve]

**Q.** Which Potency does the source give for `O=C(Cn1nc(C(F)F)cc1C(F)F)NNC(=S)Nc1ccc(F)cc1` here?
**A.** inactive

**Q.** Which Potency does the source give for `CSCCC(=O)N1CCN(CC(=O)N2CCCC2)CC1` here?
**A.** inconclusive: 18.3 µM [activator, partial curve, poor fit]

**Q.** For `CSc1cccc(NC(=O)Nc2ccccc2)c1`, which Potency is on record?
**A.** inconclusive: 9.2 µM [activator, partial curve]

**Q.** Which Potency does the source give for `O=C(C1COc2ccccc2O1)N1CCN(S(=O)(=O)c2ccccc2)CC1` (configuration not stated) here?
**A.** inconclusive: 20.6 µM [inhibitor, single point]

**Q.** With `O=C(N/N=C/c1cccc([N+](=O)[O-])c1)C1CC1c1ccccc1` (configuration not stated) as the molecule, how does the Potency read?
**A.** inactive

**Q.** For `CCN(CC(=O)Nc1ccc(NC(C)=O)cc1)C(=O)CCCOc1ccc(C(C)(C)C)cc1`, which Potency is on record?
**A.** inconclusive: 20.6 µM [inhibitor, single point]

**Q.** For `Fc1ccc(NC(=S)Nc2ccc(Cl)cc2)cc1`, which Potency is on record?
**A.** inconclusive: 29.1 µM [inhibitor, single point]

**Q.** Which Potency does the source give for `COC(=O)c1cccc(Nc2c3c(nc4ccccc24)CCC3)c1` here?
**A.** inconclusive: 23.1 µM [inhibitor, partial curve]

**Q.** For `O=C(Nc1cccc(-c2nc3ccccc3s2)c1)C1=COCCO1`, which Potency is on record?
**A.** inactive

**Q.** Which Potency does the source give for `CN1N=C2c3ccccc3CCC2C1c1ccc(Cl)cc1` (configuration not stated) here?
**A.** inconclusive: 20.6 µM [activator, partial curve]

**Q.** For `COc1ccc(-n2cnnc2SCC(=O)Nc2cc(C(C)(C)C)nn2-c2ccccc2)cc1`, which Potency is on record?
**A.** active: 20.6 µM

**Q.** For `COc1ccc(-c2cc3ncnc(Cl)c3s2)cc1`, which Potency is on record?
**A.** inconclusive: 14.6 µM [activator, partial curve]

**Q.** Which Potency does the source give for `CCOc1cc(N2CCOCC2)c(OCC)cc1NC(=O)Cc1ccc(OC)c(OC)c1` here?
**A.** inconclusive: 18.4 µM [inhibitor, single point]

**Q.** Which Potency does the source give for `Cc1ccc(-c2nnc(Sc3nc4ccccc4o3)c3ccccc23)cc1` here?
**A.** inconclusive: 0.291 µM [activator, partial curve, poor fit]

**Q.** Which Potency does the source give for `CCc1cc(C(=O)N/N=C/c2ccc(OC)cc2)c2ccccc2n1` here?
**A.** inconclusive: 4.61 µM [inhibitor, single point]

**Q.** With `COc1ccc(CCNC(=O)COC(=O)c2ccc(F)c(S(=O)(=O)N3CCOCC3)c2)cc1` as the molecule, how does the Potency read?
**A.** inactive

**Q.** For `COc1ccc(C(=O)/C=C/Nc2ccc(S(=O)(=O)Nc3onc(C)c3C)cc2)cc1`, which Potency is on record?
**A.** inconclusive: 18.4 µM [activator, single point]

**Q.** Which Potency does the source give for `Cc1cc(C)n(-c2ccc(C(=O)NCc3ccc4c(c3)OCO4)cc2)n1` here?
**A.** inactive

**Q.** For `COC(=O)C(Cc1c[nH]c2ccccc12)NC(=O)c1ccc2nc[nH]c2c1` (configuration not stated), which Potency is on record?
**A.** inconclusive: 13 µM [activator, partial curve]

**Q.** Which Potency does the source give for `CCOc1ccc(CCNC(=O)CCn2cccc2)cc1OCC` here?
**A.** inactive

**Q.** With `CCc1nnc(NC(=O)CSc2nnc(COc3ccc(C)cc3)n2-c2ccccc2)s1` as the molecule, how does the Potency read?
**A.** inconclusive: 23.1 µM [inhibitor, single point]

**Q.** For `CC(C)c1ccc(NC2=CC(=O)CC(C)(C)C2)cc1`, which Potency is on record?
**A.** inconclusive: 29.1 µM [activator, single point]

**Q.** Which Potency does the source give for `COc1cccc2c(=O)n(CC(=O)NC3CCCC3)ccc12` here?
**A.** inconclusive: 16.4 µM [activator, single point]

**Q.** For `CN(C(=O)c1cc2ccccc2cc1O)C1CCCCC1`, which Potency is on record?
**A.** inconclusive: 10.3 µM [activator, partial curve]

**Q.** Which Potency does the source give for `CCOc1ccc(C(=O)CCC(=O)N2CCN(c3ccccc3O)CC2)cc1` here?
**A.** inconclusive: 6.51 µM [inhibitor, single point]

**Q.** Which Potency does the source give for `O=C(O)c1ccc(-n2cc(C(=O)c3ccccc3O)cn2)cc1` here?
**A.** inconclusive: 20.6 µM [activator, partial curve]

**Q.** For `CCOc1ccc(-c2ccc(SCC)nn2)cc1`, which Potency is on record?
**A.** inconclusive: 2.31 µM [activator, full curve]

**Q.** Which Potency does the source give for `NC(=O)C1CCN(Cc2nc3ccccc3c(=O)[nH]2)CC1` here?
**A.** inactive

**Q.** Which Potency does the source give for `CCN(C(=O)COC(=O)c1cc(C)n(-c2ccc(F)cc2)c1C)C1CCS(=O)(=O)C1` (configuration not stated) here?
**A.** inconclusive: 2.91 µM [inhibitor, full curve]

**Q.** With `C/C(CC(=O)Nc1cc(C)ccn1)=N\NC(=O)c1cccc(C)c1` as the molecule, how does the Potency read?
**A.** inconclusive: 18.3 µM [activator, single point]

**Q.** Which Potency does the source give for `CCn1c(N2CCN(CC(=O)c3c(C)n(C)c4ccc(OC)cc34)CC2)nc2c1c(=O)[nH]c(=O)n2C` here?
**A.** inconclusive: 7.3 µM [inhibitor, partial curve]

**Q.** For `COc1ccc(O)c(/C=N/NC(=O)c2ccc(N3CCCC3=O)cc2)c1`, which Potency is on record?
**A.** inactive

**Q.** With `CCN1CCN(c2nc3c(c(=O)[nH]c(=O)n3C)n2CCSc2nc3ccccc3s2)CC1` as the molecule, how does the Potency read?
**A.** inconclusive: 25.9 µM [inhibitor, partial curve, poor fit]

**Q.** With `Cn1c(C(=O)NCCN2CCc3ccccc3C2)cc2c(=O)[nH]c3ccccc3c21` as the molecule, how does the Potency read?
**A.** inconclusive: 16.4 µM [inhibitor, single point]

**Q.** For `CC1CCC/C(=C\Nc2ccc(C(=O)O)c(O)c2)C1=O` (configuration not stated), which Potency is on record?
**A.** inconclusive: 16.4 µM [activator, partial curve]

**Q.** With `CCOC(=O)c1csc(NC(=O)c2ccccc2)n1` as the molecule, how does the Potency read?
**A.** inconclusive: 4.11 µM [activator, full curve]

**Q.** Which Potency does the source give for `COc1ccc(-c2noc(CSc3nnc(Cc4ccccc4)n3-c3ccc(Cl)cc3)n2)cc1` here?
**A.** inconclusive: 25.9 µM [inhibitor, single point]

**Q.** For `O=C(Nc1nccs1)c1cc(Cl)nc2ccccc12`, which Potency is on record?
**A.** inactive

**Q.** With `C#CC[N+](CC)(CC)CC#Cc1ccccc1` as the molecule, how does the Potency read?
**A.** inconclusive: 16.4 µM [activator, partial curve]

**Q.** For `CCN(CC)CCN(Cc1cc2cc(C)ccc2[nH]c1=O)C(=S)Nc1ccccc1`, which Potency is on record?
**A.** inconclusive: 32.6 µM [inhibitor, partial curve, poor fit]

**Q.** Which Potency does the source give for `Cn1cc(/C=C(\C#N)C(=O)Nc2ncc(Cc3ccc(Cl)cc3)s2)c2ccccc21` here?
**A.** inactive

**Q.** With `Cc1ccc(C(=O)C2CCN(CC(=O)Nc3nc(C)cs3)CC2)cc1` as the molecule, how does the Potency read?
**A.** inconclusive: 20.6 µM [inhibitor, single point]

**Q.** For `COCc1cc(SC2CCCCC2)nc(C)n1`, which Potency is on record?
**A.** inconclusive: 23.1 µM [activator, partial curve, poor fit]

**Q.** For `Cc1ccc(N(Cc2ccccc2)C(=O)c2ccc(Cl)c(S(=O)(=O)N3CCOCC3)c2)cc1`, which Potency is on record?
**A.** inconclusive: 4.11 µM [inhibitor, single point]

**Q.** With `COCCCNc1ncnc2sc3c(c12)CCC(C)C3` (configuration not stated) as the molecule, how does the Potency read?
**A.** inconclusive: 18.4 µM [inhibitor, partial curve, poor fit]

**Q.** Which Potency does the source give for `Cc1cc(=O)n(Cc2ccccc2)c2ccccc12` here?
**A.** inactive

**Q.** For `O=C(O)c1cc(-c2ccco2)nc2ccc(Br)cc12`, which Potency is on record?
**A.** inconclusive: 32.6 µM [activator, single point]
